Results taken from the supplement of paper PMC10849652.
The other results are listed elsewhere or left out.

Protein sequences, listed by entry. Tags and fused reporters are not part of them. Lines headed by an entry give the natural chain unless they say otherwise; changes in a name come on top.
UniProt O94885: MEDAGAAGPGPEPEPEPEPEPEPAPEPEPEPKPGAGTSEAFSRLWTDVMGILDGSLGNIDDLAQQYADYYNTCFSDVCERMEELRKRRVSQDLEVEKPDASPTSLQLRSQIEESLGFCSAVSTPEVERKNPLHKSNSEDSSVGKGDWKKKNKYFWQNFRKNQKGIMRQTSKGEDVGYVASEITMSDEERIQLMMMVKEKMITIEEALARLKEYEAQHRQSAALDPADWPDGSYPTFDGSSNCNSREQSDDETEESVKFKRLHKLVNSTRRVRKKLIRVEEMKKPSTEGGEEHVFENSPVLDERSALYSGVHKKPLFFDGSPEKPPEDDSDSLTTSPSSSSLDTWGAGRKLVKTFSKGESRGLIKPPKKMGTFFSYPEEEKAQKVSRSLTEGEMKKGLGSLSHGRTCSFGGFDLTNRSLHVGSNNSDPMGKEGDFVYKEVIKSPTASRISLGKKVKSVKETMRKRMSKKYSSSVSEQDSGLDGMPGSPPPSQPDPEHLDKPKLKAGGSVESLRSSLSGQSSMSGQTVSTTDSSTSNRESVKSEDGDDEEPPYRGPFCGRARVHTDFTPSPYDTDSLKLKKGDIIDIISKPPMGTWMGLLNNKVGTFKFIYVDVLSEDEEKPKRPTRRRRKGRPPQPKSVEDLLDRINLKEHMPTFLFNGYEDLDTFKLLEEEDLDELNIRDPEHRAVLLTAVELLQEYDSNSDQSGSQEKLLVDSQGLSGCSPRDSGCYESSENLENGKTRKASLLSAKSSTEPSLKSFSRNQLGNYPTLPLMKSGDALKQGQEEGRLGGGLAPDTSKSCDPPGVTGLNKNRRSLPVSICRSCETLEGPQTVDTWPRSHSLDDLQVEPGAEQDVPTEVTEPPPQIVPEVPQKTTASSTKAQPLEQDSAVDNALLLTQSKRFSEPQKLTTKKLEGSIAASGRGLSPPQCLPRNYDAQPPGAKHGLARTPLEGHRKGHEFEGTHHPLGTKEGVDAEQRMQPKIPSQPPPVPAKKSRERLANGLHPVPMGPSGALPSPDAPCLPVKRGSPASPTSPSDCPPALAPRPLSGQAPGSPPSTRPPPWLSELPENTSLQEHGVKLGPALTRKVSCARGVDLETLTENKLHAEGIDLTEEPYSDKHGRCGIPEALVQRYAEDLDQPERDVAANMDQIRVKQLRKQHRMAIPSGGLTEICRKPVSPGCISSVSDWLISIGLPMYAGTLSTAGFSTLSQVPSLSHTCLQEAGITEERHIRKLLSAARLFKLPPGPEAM
UniProt P29034: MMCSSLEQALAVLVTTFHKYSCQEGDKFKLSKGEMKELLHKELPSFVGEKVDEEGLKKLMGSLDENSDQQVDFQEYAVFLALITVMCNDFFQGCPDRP
UniProt Q14160: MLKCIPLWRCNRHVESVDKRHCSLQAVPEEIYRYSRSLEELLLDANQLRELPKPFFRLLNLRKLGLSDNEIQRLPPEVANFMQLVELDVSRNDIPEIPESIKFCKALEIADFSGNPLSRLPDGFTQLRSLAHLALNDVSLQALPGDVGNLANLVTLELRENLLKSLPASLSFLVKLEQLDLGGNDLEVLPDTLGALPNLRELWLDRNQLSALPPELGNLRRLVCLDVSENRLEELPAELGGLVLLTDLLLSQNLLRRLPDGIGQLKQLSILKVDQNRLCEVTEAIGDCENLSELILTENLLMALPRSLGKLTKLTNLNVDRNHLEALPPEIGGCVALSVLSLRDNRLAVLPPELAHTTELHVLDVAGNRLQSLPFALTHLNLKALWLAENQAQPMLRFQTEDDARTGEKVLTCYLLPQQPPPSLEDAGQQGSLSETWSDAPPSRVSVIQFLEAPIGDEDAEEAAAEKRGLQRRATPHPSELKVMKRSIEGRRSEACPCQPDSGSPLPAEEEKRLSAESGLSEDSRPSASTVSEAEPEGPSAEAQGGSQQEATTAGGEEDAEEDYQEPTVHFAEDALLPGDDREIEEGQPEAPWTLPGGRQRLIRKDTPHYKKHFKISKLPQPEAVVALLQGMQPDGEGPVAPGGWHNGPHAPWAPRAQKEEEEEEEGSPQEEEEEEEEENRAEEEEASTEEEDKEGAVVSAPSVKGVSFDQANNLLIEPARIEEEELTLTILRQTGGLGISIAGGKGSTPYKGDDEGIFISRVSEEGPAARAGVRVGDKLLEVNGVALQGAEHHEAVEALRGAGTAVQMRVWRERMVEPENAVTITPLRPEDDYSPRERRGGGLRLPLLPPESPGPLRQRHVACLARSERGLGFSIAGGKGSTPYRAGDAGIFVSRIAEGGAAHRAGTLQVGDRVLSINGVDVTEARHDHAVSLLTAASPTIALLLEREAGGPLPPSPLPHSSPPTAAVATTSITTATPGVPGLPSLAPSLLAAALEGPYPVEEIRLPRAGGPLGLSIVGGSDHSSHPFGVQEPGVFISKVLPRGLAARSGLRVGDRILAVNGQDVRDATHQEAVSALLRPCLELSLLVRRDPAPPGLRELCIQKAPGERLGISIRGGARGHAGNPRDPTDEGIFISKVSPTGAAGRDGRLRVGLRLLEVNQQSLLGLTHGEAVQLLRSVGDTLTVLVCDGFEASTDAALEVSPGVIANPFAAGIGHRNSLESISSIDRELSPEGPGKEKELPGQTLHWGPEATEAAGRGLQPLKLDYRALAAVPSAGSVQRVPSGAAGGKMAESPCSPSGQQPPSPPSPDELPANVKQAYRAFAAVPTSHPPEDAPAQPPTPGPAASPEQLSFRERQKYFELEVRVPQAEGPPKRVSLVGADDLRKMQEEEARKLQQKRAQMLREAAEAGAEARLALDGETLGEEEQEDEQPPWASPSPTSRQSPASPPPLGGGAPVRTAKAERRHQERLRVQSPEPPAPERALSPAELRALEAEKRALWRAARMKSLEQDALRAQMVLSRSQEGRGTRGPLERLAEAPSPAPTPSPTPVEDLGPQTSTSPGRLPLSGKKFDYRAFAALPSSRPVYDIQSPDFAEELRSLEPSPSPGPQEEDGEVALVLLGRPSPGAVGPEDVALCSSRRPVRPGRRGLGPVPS
UniProt Q86SQ7: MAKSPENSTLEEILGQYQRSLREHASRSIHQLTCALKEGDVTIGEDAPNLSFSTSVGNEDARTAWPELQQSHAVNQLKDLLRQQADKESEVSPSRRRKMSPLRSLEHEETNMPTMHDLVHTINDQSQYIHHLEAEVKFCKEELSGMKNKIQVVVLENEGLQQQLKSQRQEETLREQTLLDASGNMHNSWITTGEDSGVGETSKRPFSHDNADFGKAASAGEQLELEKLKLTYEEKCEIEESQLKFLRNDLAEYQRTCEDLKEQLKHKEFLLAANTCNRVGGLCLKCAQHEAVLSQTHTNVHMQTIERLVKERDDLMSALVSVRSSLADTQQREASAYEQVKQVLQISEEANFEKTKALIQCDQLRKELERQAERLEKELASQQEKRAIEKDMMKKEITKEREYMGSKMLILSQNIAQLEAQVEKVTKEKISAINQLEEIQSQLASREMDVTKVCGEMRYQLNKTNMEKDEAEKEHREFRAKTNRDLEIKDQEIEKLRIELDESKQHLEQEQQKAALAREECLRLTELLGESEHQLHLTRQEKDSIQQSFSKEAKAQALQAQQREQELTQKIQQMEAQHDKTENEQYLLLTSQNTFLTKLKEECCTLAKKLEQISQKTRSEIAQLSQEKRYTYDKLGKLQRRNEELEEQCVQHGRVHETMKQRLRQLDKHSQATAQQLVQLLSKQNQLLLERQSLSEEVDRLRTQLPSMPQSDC
UniProt Q8WWV3: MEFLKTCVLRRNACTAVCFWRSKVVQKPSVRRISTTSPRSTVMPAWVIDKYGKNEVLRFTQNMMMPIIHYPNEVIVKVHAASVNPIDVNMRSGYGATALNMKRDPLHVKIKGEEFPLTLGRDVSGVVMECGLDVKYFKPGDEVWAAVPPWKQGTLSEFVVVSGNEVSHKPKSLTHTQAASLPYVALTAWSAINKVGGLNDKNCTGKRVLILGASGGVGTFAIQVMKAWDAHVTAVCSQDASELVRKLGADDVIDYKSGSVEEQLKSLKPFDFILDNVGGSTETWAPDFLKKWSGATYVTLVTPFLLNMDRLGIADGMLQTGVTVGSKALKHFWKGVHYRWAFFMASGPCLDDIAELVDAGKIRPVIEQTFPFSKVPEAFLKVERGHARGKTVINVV
UniProt Q9HB40: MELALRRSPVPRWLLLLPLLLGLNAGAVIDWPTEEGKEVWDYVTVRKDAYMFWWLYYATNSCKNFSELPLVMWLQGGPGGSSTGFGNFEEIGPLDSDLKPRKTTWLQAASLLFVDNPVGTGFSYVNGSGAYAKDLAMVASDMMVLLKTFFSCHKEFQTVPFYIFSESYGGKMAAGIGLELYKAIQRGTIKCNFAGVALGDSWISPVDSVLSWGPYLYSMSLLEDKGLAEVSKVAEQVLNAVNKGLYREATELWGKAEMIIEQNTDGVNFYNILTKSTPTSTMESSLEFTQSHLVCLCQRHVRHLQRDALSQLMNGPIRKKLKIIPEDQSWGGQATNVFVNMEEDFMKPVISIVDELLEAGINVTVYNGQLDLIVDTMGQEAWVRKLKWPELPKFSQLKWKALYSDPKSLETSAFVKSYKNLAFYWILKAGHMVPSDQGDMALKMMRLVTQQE
UniProt Q96T51: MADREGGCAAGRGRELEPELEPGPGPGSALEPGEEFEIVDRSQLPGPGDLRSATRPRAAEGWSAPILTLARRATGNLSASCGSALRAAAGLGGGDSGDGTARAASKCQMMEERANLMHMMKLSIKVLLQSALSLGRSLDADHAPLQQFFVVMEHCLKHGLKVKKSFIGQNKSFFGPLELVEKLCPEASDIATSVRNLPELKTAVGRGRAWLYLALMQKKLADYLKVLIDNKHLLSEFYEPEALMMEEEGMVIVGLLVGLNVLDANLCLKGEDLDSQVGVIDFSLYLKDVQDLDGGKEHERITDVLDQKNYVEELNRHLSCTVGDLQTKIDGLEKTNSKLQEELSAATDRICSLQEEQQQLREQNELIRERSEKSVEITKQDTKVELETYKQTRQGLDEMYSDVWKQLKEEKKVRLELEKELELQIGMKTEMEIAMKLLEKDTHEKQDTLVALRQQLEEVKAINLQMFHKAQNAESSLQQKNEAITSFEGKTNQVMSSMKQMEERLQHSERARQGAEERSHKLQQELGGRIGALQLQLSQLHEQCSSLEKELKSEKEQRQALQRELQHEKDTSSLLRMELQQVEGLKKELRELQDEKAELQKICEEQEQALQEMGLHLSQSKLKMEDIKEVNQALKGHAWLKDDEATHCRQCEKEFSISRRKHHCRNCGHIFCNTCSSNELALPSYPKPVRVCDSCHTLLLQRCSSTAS
UniProt Q15050: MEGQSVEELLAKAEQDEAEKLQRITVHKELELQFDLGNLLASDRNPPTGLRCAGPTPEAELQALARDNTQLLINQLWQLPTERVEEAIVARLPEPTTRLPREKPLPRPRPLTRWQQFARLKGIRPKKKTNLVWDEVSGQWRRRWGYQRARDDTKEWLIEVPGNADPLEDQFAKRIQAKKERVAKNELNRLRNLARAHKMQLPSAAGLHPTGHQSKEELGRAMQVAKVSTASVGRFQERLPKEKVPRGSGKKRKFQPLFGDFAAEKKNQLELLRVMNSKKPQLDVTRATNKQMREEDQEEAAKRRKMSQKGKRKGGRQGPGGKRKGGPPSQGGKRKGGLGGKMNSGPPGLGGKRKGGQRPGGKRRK

Tests used:
Assay in all cases: log2 fold change, soluble protein after heating vs DMSO (PISA); higher = thermal stabilisation; K562 cells, 10 uM, 30 min; active = over 0.2 and 3.5 SD of the protein, either way, in both replicates (recomputed)
[1] = compound: CN1CCN(CCOc2cc(OC3CCOCC3)c3c(Nc4c(Cl)ccc5c4OCO5)ncnc3c2)CC1 [saracatinib]
In short: (§1)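 For each measurement, 10 μM compound was applied for 30 min to K562 cells at 2×10^6 cells/mL. Aliquots were heated for 3 min across 48°C-58°C, pooled, and extracted in PBS with 0.5% NP-40 at 4°C; the supernatant after 21,000xg for 90 min was soluble protein. This was quantified by TMTpro 16plex LC-MS/MS with channel sums equalised, and thermal stability was reported relative to control samples from duplicates, on a log2 fold-change scale.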

[2] = compound: CN1CCN(c2nc(C3=C(c4c[nH]c5ccccc45)C(=O)NC3=O)c3ccccc3n2)CC1 [sotrastaurin]
In short: as §1

[3] = compound: CN1CCc2c(c3ccccc3n2Cc2ccc(C(=O)NO)cc2)C1 [Tubastatin A]
In short: as §1

[4] = compound: CNC(=O)C1=CC=CC=C1NC2=NC(=NC=C2Cl)NC3=C(C=C(C=C3)N4CCOCC4)OC
In short: as §1

[5] = compound: CNC(=O)c1ccc(Nc2ncc(C(F)(F)F)c(NCc3nccnc3N(C)S(C)(=O)=O)n2)cc1 [defactinib]
In short: as §1

[6] = compound: CNCc1ccc(-c2[nH]c3cc(F)cc4c3c2CCNC4=O)cc1 [rucaparib]
In short: as §1

[7] = compound: CNc1nc(-c2ccc3c(N)n[nH]c3c2)cc(N2C[C@@H](C(=O)NC3CCCCC3)CC[C@H]2C)n1
In short: as §1

[8] = compound: COC(=O)N[C@@H](C)CNc1nccc(-c2cn(C(C)C)nc2-c2cc(Cl)cc(NS(C)(=O)=O)c2F)n1 [encorafenib]
In short: as §1

[9] = compound: COC(=O)[C@H](CCSC)NC(=O)C1=C(C=C(C=C1)NC[C@H](CS)N)C2=CC=CC=C2
In short: as §1

[10] = compound: COC1=CC=C(C=C1)CN2C=CC3=C2C=C(C=C3)C(=O)NO
In short: as §1

[11] = compound: CON(C)C(=O)N1N=C(c2cc(F)ccc2F)S[C@@]1(CCCN)c1ccccc1 [filanesib]
In short: as §1

[12] = compound: CO[C@H]1C[C@@H]2CC[C@@H](C)[C@@](O)(O2)C(=O)C(=O)N2CCCC[C@H]2C(=O)O[C@H]([C@H](C)C[C@@H]2CC[C@H](n3cnnn3)[C@H](OC)C2)CC(=O)[C@H](C)/C=C(\C)[C@@H](O)[C@@H](OC)C(=O)[C@H](C)C[C@H](C)/C=C/C=C/C=C/1C [zotarolimus]
In short: as §1

[13] = compound: COc1cc(C(=O)O)ccc1NC(=O)[C@@H]1N[C@@H](CC(C)(C)C)[C@](C#N)(c2ccc(Cl)cc2F)[C@H]1c1cccc(Cl)c1F [idasanutlin]
In short: as §1

[14] = compound: COc1cc(Nc2ncc3c(n2)-c2ccc(Cl)cc2C(c2c(F)cccc2OC)=NC3)ccc1C(=O)O [alisertib]
In short: as §1

[15] = compound: COc1cc2nc(-c3cc(F)ccc3O)nc(N[C@@H]3CNC[C@H]3C(C)(C)O)c2cc1OC
In short: as §1

[16] = compound: COc1cc2ncnc(Nc3ccc(F)c(Cl)c3)c2cc1OCCCN1CCOCC1 [gefitinib]
In short: as §1

[17] = compound: COc1cccc2cc(-c3nc([C@H]4CC[C@H](C(=O)O)CC4)n4ncnc(N)c34)[nH]c12
In short: as §1

[18] = compound: CS(=O)(=O)CCNCc1ccc(-c2ccc3ncnc(Nc4ccc(OCc5cccc(F)c5)c(Cl)c4)c3c2)o1 [lapatinib]
In short: as §1

[19] = compound: CS(=O)(=O)N1CCN(Cc2cc3nc(-c4cccc5[nH]ncc45)nc(N4CCOCC4)c3s2)CC1 [pictilisib]
In short: as §1

[20] = compound: CN1CC[C@H](c2c(O)cc(O)c3c(=O)cc(-c4ccccc4Cl)oc23)[C@H](O)C1 [alvocidib]
In short: as §1

SASH1 (UniProt O94885)
log2 fold change [1]: inactive: -0.081
log2 fold change [2]: inactive: -0.043
log2 fold change [3]: inactive: 0.04
log2 fold change [4]: inactive: -0.019
log2 fold change [5]: inactive: -0.064
log2 fold change [6]: inactive: 0.03
log2 fold change [7]: inactive: -0.015
log2 fold change [8]: inactive: 0.013
log2 fold change [9]: inactive: -0.022
log2 fold change [10]: inactive: -0.059
log2 fold change [11]: inactive: -0.074
log2 fold change [12]: inactive: -0.04
log2 fold change [13]: inactive: -0.05
log2 fold change [14]: inactive: 0.009
log2 fold change [15]: inactive: -0.161
log2 fold change [16]: inactive: 0.015
log2 fold change [17]: inactive: -0.015
log2 fold change [18]: inactive: -0.013
log2 fold change [19]: inactive: 0.073

S100A2 (UniProt P29034)
log2 fold change [1]: inactive: -0.034
log2 fold change [20]: inactive: -0.066
log2 fold change [3]: inactive: 0.426
log2 fold change [4]: inactive: 0.034
log2 fold change [5]: inactive: -0.254
log2 fold change [6]: inactive: 0.061
log2 fold change [7]: inactive: -0.039
log2 fold change [8]: inactive: -0.145
log2 fold change [9]: inactive: -0.093
log2 fold change [12]: inactive: 0.048
log2 fold change [13]: inactive: -0.176
log2 fold change [14]: inactive: 0.731
log2 fold change [15]: inactive: 0.258
log2 fold change [16]: inactive: 0.572
log2 fold change [17]: inactive: -0.083
log2 fold change [18]: inactive: -0.041

RSL1D1 (UniProt O76021)
log2 fold change [1]: inactive: -0.086
log2 fold change [2]: inactive: 0.05
log2 fold change [3]: inactive: 0.06
log2 fold change [4]: inactive: 0.004
log2 fold change [5]: active: 0.83
log2 fold change [6]: inactive: 0.359
log2 fold change [7]: inactive: 0.097
log2 fold change [8]: inactive: 0.117
log2 fold change [9]: inactive: 0.079
log2 fold change [10]: inactive: -0.094
log2 fold change [11]: inactive: 0.543
log2 fold change [12]: inactive: 0.055
log2 fold change [13]: inactive: 0.363
log2 fold change [14]: inactive: -0.202
log2 fold change [15]: inactive: 0.181
log2 fold change [16]: inactive: -0.031
log2 fold change [17]: inactive: -0.065
log2 fold change [18]: inactive: 0.181
log2 fold change [19]: inactive: -0.013

SCRIB isoform 3 (UniProt Q14160)
log2 fold change [1]: inactive: 0.094
log2 fold change [20]: inactive: 0.039
log2 fold change [3]: inactive: 0.101
log2 fold change [4]: inactive: -0.273
log2 fold change [7]: inactive: -0.056
log2 fold change [10]: inactive: -0.223
log2 fold change [12]: inactive: -0.152
log2 fold change [14]: inactive: 0.389
log2 fold change [17]: inactive: -0.461
log2 fold change [19]: inactive: -0.021

SDCCAG8 (UniProt Q86SQ7)
log2 fold change [1]: inactive: 0.067
log2 fold change [2]: inactive: -0.197
log2 fold change [3]: inactive: 0.037
log2 fold change [4]: inactive: 0.209
log2 fold change [5]: inactive: -0.12
log2 fold change [6]: inactive: 0.172
log2 fold change [7]: inactive: -0.121
log2 fold change [8]: inactive: 0.028
log2 fold change [9]: inactive: 0
log2 fold change [10]: inactive: 0.119
log2 fold change [11]: inactive: -0.076
log2 fold change [13]: inactive: 0.008
log2 fold change [15]: inactive: 0.085
log2 fold change [18]: inactive: -0.082
log2 fold change [19]: inactive: -0.212

RTN4IP1 (UniProt Q8WWV3)
log2 fold change [1]: inactive: -0.264
log2 fold change [2]: inactive: 0.43
log2 fold change [3]: active: 0.611
log2 fold change [4]: inactive: -0.066
log2 fold change [5]: inactive: -0.157
log2 fold change [6]: inactive: -0.178
log2 fold change [7]: inactive: -0.069
log2 fold change [8]: inactive: 0.02
log2 fold change [9]: inactive: 0.007
log2 fold change [10]: inactive: 0.206
log2 fold change [11]: inactive: -0.081
log2 fold change [12]: inactive: 0.097
log2 fold change [13]: active: 1.17
log2 fold change [14]: inactive: -0.22
log2 fold change [15]: inactive: -0.013
log2 fold change [16]: inactive: 0.125
log2 fold change [17]: inactive: 0.256
log2 fold change [18]: inactive: 0.003
log2 fold change [19]: inactive: -0.003

SCPEP1 (UniProt Q9HB40)
log2 fold change [1]: inactive: -0.029
log2 fold change [2]: inactive: 0.031
log2 fold change [3]: inactive: -0.012
log2 fold change [4]: inactive: 0.021
log2 fold change [5]: inactive: 0.005
log2 fold change [6]: inactive: 0.064
log2 fold change [7]: inactive: -0.022
log2 fold change [8]: inactive: -0.025
log2 fold change [9]: inactive: -0.004
log2 fold change [10]: inactive: 0.078
log2 fold change [11]: inactive: -0.082
log2 fold change [12]: inactive: 0.009
log2 fold change [13]: inactive: 0.002
log2 fold change [14]: inactive: 0.007
log2 fold change [15]: inactive: -0.058
log2 fold change [16]: inactive: -0.014
log2 fold change [17]: inactive: 0.057
log2 fold change [18]: inactive: -0.021
log2 fold change [19]: inactive: 0.096

RUFY1 (UniProt Q96T51)
log2 fold change [1]: inactive: -0.037
log2 fold change [2]: inactive: -0.174
log2 fold change [3]: inactive: -0.012
log2 fold change [4]: inactive: 0.045
log2 fold change [5]: inactive: -0.071
log2 fold change [6]: inactive: 0.032
log2 fold change [7]: inactive: -0.09
log2 fold change [8]: inactive: 0.077
log2 fold change [9]: inactive: -0.02
log2 fold change [10]: inactive: -0.015
log2 fold change [11]: inactive: 0.005
log2 fold change [12]: inactive: 0.056
log2 fold change [13]: inactive: -0.049
log2 fold change [14]: inactive: 0.047
log2 fold change [15]: inactive: 0.02
log2 fold change [16]: inactive: -0.004
log2 fold change [17]: inactive: -0.053
log2 fold change [18]: inactive: -0.035
log2 fold change [19]: inactive: -0.009

RRS1 (UniProt Q15050)
log2 fold change [1]: inactive: -0.079
log2 fold change [2]: inactive: -0.001
log2 fold change [3]: inactive: 0.071
log2 fold change [4]: inactive: 0.009
log2 fold change [5]: inactive: 0.688
log2 fold change [6]: inactive: 0.488
log2 fold change [7]: inactive: 0.109
log2 fold change [8]: inactive: 0.166
log2 fold change [9]: inactive: 0.047
log2 fold change [10]: inactive: -0.111
log2 fold change [11]: inactive: 0.593
log2 fold change [12]: inactive: 0.033
log2 fold change [13]: inactive: 0.262
log2 fold change [14]: inactive: -0.171
log2 fold change [15]: inactive: 0.01
log2 fold change [16]: inactive: 0.005
log2 fold change [17]: inactive: -0.169
log2 fold change [18]: inactive: 0.137
log2 fold change [19]: inactive: -0.096
